{"sequences": {"note": "By UniProt entry, the sequences of proteins in these tests, tags left out.", "ACTN4, O43707, UniProt O43707, whole entry": "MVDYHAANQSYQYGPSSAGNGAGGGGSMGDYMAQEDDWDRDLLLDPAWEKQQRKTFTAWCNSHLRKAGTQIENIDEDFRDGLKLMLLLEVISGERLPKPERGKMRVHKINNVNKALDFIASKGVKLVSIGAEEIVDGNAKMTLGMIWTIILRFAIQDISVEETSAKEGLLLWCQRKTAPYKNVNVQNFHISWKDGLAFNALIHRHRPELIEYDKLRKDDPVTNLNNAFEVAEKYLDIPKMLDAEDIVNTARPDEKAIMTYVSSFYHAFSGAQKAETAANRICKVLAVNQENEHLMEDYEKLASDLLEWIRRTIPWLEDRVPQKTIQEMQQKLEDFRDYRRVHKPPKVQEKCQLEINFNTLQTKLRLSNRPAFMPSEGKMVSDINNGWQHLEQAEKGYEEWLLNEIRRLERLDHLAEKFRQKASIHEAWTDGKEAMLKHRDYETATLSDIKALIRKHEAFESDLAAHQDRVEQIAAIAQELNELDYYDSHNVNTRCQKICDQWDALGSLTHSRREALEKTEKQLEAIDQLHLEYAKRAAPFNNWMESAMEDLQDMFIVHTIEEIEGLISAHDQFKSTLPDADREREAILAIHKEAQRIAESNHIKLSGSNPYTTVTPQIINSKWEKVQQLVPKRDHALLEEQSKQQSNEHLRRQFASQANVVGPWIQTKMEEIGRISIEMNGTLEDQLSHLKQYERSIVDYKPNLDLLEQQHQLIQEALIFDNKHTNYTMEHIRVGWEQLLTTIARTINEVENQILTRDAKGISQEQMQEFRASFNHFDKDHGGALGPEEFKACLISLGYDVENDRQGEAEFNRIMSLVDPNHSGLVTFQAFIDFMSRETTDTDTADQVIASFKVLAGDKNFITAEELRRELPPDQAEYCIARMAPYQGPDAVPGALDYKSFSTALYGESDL", "ATP6V0D1, P61421, UniProt P61421, whole entry": "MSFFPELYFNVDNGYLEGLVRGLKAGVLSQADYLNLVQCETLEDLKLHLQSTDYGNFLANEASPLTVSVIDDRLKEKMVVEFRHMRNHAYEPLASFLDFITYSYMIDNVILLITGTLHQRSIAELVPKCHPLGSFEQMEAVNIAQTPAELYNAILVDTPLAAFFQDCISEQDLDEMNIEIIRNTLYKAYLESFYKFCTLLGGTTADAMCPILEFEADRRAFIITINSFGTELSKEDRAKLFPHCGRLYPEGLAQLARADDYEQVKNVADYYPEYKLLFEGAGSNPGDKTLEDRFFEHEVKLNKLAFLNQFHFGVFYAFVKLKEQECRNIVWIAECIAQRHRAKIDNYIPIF", "CDK9, P50750, UniProt P50750, whole entry": "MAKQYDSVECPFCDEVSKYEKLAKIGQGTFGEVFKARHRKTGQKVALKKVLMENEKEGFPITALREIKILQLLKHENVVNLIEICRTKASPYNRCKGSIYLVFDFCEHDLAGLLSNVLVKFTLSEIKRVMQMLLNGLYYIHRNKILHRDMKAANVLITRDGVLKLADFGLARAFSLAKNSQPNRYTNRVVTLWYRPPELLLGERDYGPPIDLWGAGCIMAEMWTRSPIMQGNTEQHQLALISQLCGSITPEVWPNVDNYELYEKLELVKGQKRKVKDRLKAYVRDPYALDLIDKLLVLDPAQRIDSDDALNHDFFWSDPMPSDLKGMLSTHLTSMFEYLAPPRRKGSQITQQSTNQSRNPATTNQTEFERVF", "MYL6, P60660, UniProt P60660, whole entry": "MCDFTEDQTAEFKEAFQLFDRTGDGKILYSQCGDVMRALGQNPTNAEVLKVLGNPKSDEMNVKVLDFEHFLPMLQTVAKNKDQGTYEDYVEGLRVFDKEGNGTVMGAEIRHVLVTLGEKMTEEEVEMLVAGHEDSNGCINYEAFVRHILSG", "MTPN, P58546, UniProt P58546, whole entry": "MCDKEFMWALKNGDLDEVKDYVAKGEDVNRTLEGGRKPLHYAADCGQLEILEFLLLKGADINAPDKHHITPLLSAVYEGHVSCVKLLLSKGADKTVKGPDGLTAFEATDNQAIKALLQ", "ACTL6A, O96019, UniProt O96019, whole entry": "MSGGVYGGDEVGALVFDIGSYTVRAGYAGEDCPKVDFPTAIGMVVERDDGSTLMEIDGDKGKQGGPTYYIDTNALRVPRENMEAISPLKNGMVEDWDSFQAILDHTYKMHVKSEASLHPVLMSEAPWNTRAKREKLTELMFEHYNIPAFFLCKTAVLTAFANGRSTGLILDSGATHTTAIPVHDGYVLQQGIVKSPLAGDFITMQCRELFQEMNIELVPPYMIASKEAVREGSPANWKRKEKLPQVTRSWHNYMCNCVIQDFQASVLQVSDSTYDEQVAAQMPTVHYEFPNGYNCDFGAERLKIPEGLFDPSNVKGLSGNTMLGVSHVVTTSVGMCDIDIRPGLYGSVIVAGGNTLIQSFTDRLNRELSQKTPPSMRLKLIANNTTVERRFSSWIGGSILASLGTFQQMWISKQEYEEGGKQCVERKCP", "ATP6V1A, P38606, UniProt P38606, whole entry": "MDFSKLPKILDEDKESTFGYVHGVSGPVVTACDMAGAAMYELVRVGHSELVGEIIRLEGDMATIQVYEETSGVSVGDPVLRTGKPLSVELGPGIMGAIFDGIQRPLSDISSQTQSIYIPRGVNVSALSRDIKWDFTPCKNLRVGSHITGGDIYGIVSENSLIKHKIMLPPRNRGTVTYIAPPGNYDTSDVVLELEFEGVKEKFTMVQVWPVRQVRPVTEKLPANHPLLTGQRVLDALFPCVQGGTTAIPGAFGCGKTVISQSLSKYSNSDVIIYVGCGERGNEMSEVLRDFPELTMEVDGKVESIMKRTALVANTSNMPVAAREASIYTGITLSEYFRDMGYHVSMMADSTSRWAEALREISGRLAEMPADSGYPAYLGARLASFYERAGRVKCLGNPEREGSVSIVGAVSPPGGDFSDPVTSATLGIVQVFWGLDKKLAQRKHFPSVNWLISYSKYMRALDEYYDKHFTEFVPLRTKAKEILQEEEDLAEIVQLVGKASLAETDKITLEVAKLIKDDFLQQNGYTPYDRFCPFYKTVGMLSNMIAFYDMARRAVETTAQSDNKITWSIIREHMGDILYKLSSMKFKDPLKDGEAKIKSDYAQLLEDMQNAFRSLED", "CKS2, P33552, UniProt P33552, whole entry": "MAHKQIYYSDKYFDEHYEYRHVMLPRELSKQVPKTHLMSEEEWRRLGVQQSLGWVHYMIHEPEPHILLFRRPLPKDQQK", "EIF2S1, P05198, UniProt P05198, whole entry": "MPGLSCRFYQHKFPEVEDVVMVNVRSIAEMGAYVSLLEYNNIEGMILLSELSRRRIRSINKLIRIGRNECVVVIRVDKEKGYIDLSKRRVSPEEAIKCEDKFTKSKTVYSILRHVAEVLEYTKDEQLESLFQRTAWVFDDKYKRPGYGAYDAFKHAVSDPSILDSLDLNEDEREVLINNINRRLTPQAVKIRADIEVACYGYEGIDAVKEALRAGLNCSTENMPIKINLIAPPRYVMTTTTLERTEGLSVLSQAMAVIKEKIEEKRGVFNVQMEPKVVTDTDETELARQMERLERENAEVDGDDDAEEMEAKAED"}, "source": "the supplement of paper PMC10032668", "test_in_all_cases": "PRISMA enrichment of interactor (LFQ) in peptide spot vs all other peptide spots (log2 fold change); higher = stronger / more specific binding of the interactor to the peptide", "key": {"ACTN4, O43707": {"molecular_target": "ACTN4, O43707", "procedure": "(§1)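 PRISMA: 15-aa overlapping tiles (offset 8 aa) of 60 microproteins, plus SOS1/GLUT1 control peptides, were spot-synthesized on cellulose membranes in triplicate. Membranes were incubated with benzonase-treated HEK293T lysate, and bound proteins were identified by LC-MS/MS with LFQ. Enrichment is the log2 fold change of each protein in one spot versus all other spots. Only interactors passing the significance cutoff are listed.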"}, "ATP6V0D1, P61421": {"molecular_target": "ATP6V0D1, P61421", "procedure": "as §1"}, "CDK9, P50750": {"molecular_target": "CDK9, P50750", "procedure": "as §1"}, "CGN, Q9P2M7": {"molecular_target": "CGN, Q9P2M7", "procedure": "as §1"}, "GPAT4, Q86UL3": {"molecular_target": "GPAT4, Q86UL3", "procedure": "as §1"}, "MYL6, P60660": {"molecular_target": "MYL6, P60660", "procedure": "as §1"}, "PEX11B, O96011": {"molecular_target": "PEX11B, O96011", "procedure": "as §1"}, "PRRC2C, Q9Y520": {"molecular_target": "PRRC2C, Q9Y520", "procedure": "as §1"}, "RER1, O15258": {"molecular_target": "RER1, O15258", "procedure": "as §1"}, "STMN3, Q9NZ72": {"molecular_target": "STMN3, Q9NZ72", "procedure": "as §1"}, "UBAC2, Q8NBM4": {"molecular_target": "UBAC2, Q8NBM4", "procedure": "as §1"}, "UFL1, O94874": {"molecular_target": "UFL1, O94874", "procedure": "as §1"}, "UTP3, Q9NQZ2": {"molecular_target": "UTP3, Q9NQZ2", "procedure": "as §1"}, "ASPM, Q8IZT6": {"molecular_target": "ASPM, Q8IZT6", "procedure": "as §1"}, "ATP5MF, P56134": {"molecular_target": "ATP5MF, P56134", "procedure": "as §1"}, "CDK8, P49336": {"molecular_target": "CDK8, P49336", "procedure": "as §1"}, "CHMP4B, Q9H444": {"molecular_target": "CHMP4B, Q9H444", "procedure": "as §1"}, "GMNN, O75496": {"molecular_target": "GMNN, O75496", "procedure": "as §1"}, "MTPN, P58546": {"molecular_target": "MTPN, P58546", "procedure": "as §1"}, "PDP1, Q9P0J1": {"molecular_target": "PDP1, Q9P0J1", "procedure": "as §1"}, "RPN2, P04844": {"molecular_target": "RPN2, P04844", "procedure": "as §1"}, "SCYL1, Q96KG9": {"molecular_target": "SCYL1, Q96KG9", "procedure": "as §1"}, "SHMT1, P34896": {"molecular_target": "SHMT1, P34896", "procedure": "as §1"}, "SLU7, O95391": {"molecular_target": "SLU7, O95391", "procedure": "as §1"}, "ACTL6A, O96019": {"molecular_target": "ACTL6A, O96019", "procedure": "as §1"}, "AQR, O60306": {"molecular_target": "AQR, O60306", "procedure": "as §1"}, "ATP6V1A, P38606": {"molecular_target": "ATP6V1A, P38606", "procedure": "as §1"}, "C19orf53, Q9UNZ5": {"molecular_target": "C19orf53, Q9UNZ5", "procedure": "as §1"}, "CDCA7L, Q96GN5": {"molecular_target": "CDCA7L, Q96GN5", "procedure": "as §1"}, "CKS2, P33552": {"molecular_target": "CKS2, P33552", "procedure": "as §1"}, "COPS3, Q9UNS2": {"molecular_target": "COPS3, Q9UNS2", "procedure": "as §1"}, "CXorf56, Q9H5V9": {"molecular_target": "CXorf56, Q9H5V9", "procedure": "as §1"}, "EIF2S1, P05198": {"molecular_target": "EIF2S1, P05198", "procedure": "as §1"}, "HAGH, Q16775": {"molecular_target": "HAGH, Q16775", "procedure": "as §1"}, "MRPS14, O60783": {"molecular_target": "MRPS14, O60783", "procedure": "as §1"}, "MRPS9, P82933": {"molecular_target": "MRPS9, P82933", "procedure": "as §1"}, "MTG2, Q9H4K7": {"molecular_target": "MTG2, Q9H4K7", "procedure": "as §1"}, "RARS, P54136": {"molecular_target": "RARS, P54136", "procedure": "as §1"}, "TARS, P26639": {"molecular_target": "TARS, P26639", "procedure": "as §1"}, "TMEM256-PLSCR3": {"molecular_target": "TMEM256-PLSCR3", "procedure": "as §1"}, "UBTF, P17480": {"molecular_target": "UBTF, P17480", "procedure": "as §1"}, "WDR5, P61964": {"molecular_target": "WDR5, P61964", "procedure": "as §1"}}, "note": "The list shows a part of the results. The list holds hits alone, and they repeat only in part."}
{"binder": "ECAKEHTDTEQTGHL", "note": "[RP11-620J15.3]", "values": [{"measurement": "PRISMA enrichment of interactor (log2)", "setting": "ACTN4, O43707", "value": 4.72}, {"measurement": "PRISMA enrichment of interactor (log2)", "setting": "ATP6V0D1, P61421", "value": 5.65}, {"measurement": "PRISMA enrichment of interactor (log2)", "setting": "CDK9, P50750", "value": 8.71}, {"measurement": "PRISMA enrichment of interactor (log2)", "setting": "CGN, Q9P2M7", "value": 5.63}, {"measurement": "PRISMA enrichment of interactor (log2)", "setting": "GPAT4, Q86UL3", "value": 6.44}, {"measurement": "PRISMA enrichment of interactor (log2)", "setting": "MYL6, P60660", "value": 6.14}, {"measurement": "PRISMA enrichment of interactor (log2)", "setting": "PEX11B, O96011", "value": 4.27}, {"measurement": "PRISMA enrichment of interactor (log2)", "setting": "PRRC2C, Q9Y520", "value": 5.96}, {"measurement": "PRISMA enrichment of interactor (log2)", "setting": "RER1, O15258", "value": 7.9}, {"measurement": "PRISMA enrichment of interactor (log2)", "setting": "STMN3, Q9NZ72", "value": 4.78}, {"measurement": "PRISMA enrichment of interactor (log2)", "setting": "UBAC2, Q8NBM4", "value": 5.09}, {"measurement": "PRISMA enrichment of interactor (log2)", "setting": "UFL1, O94874", "value": 6.98}, {"measurement": "PRISMA enrichment of interactor (log2)", "setting": "UTP3, Q9NQZ2", "value": 4.53}]}
{"binder": "NNAMRFAHSWVTLVI", "note": "[LINC01128]", "values": [{"measurement": "PRISMA enrichment of interactor (log2)", "setting": "ACTN4, O43707", "value": 4.9}, {"measurement": "PRISMA enrichment of interactor (log2)", "setting": "ASPM, Q8IZT6", "value": 4.14}, {"measurement": "PRISMA enrichment of interactor (log2)", "setting": "ATP5MF, P56134", "value": 5.66}, {"measurement": "PRISMA enrichment of interactor (log2)", "setting": "CDK8, P49336", "value": 4.5}, {"measurement": "PRISMA enrichment of interactor (log2)", "setting": "CHMP4B, Q9H444", "value": 4.84}, {"measurement": "PRISMA enrichment of interactor (log2)", "setting": "GMNN, O75496", "value": 3.87}, {"measurement": "PRISMA enrichment of interactor (log2)", "setting": "MTPN, P58546", "value": 5.63}, {"measurement": "PRISMA enrichment of interactor (log2)", "setting": "PDP1, Q9P0J1", "value": 4.18}, {"measurement": "PRISMA enrichment of interactor (log2)", "setting": "RPN2, P04844", "value": 4.93}, {"measurement": "PRISMA enrichment of interactor (log2)", "setting": "SCYL1, Q96KG9", "value": 5.56}, {"measurement": "PRISMA enrichment of interactor (log2)", "setting": "SHMT1, P34896", "value": 5.77}, {"measurement": "PRISMA enrichment of interactor (log2)", "setting": "SLU7, O95391", "value": 3.91}]}
{"binder": "EMSMDSQLVWRLLTD", "note": "[NAV2-AS2]", "values": [{"measurement": "PRISMA enrichment of interactor (log2)", "setting": "ACTL6A, O96019", "value": 5.98}, {"measurement": "PRISMA enrichment of interactor (log2)", "setting": "AQR, O60306", "value": 3.88}, {"measurement": "PRISMA enrichment of interactor (log2)", "setting": "ATP6V1A, P38606", "value": 7.43}, {"measurement": "PRISMA enrichment of interactor (log2)", "setting": "C19orf53, Q9UNZ5", "value": 6.39}, {"measurement": "PRISMA enrichment of interactor (log2)", "setting": "CDCA7L, Q96GN5", "value": 6.79}, {"measurement": "PRISMA enrichment of interactor (log2)", "setting": "CKS2, P33552", "value": 4.52}, {"measurement": "PRISMA enrichment of interactor (log2)", "setting": "COPS3, Q9UNS2", "value": 5.73}, {"measurement": "PRISMA enrichment of interactor (log2)", "setting": "CXorf56, Q9H5V9", "value": 5.26}, {"measurement": "PRISMA enrichment of interactor (log2)", "setting": "EIF2S1, P05198", "value": 6.24}, {"measurement": "PRISMA enrichment of interactor (log2)", "setting": "HAGH, Q16775", "value": 6.74}, {"measurement": "PRISMA enrichment of interactor (log2)", "setting": "MRPS14, O60783", "value": 4.84}, {"measurement": "PRISMA enrichment of interactor (log2)", "setting": "MRPS9, P82933", "value": 5.25}, {"measurement": "PRISMA enrichment of interactor (log2)", "setting": "MTG2, Q9H4K7", "value": 4.18}, {"measurement": "PRISMA enrichment of interactor (log2)", "setting": "RARS, P54136", "value": 4.42}, {"measurement": "PRISMA enrichment of interactor (log2)", "setting": "TARS, P26639", "value": 4.18}, {"measurement": "PRISMA enrichment of interactor (log2)", "setting": "TMEM256-PLSCR3", "value": 5.11}, {"measurement": "PRISMA enrichment of interactor (log2)", "setting": "UBTF, P17480", "value": 5.64}, {"measurement": "PRISMA enrichment of interactor (log2)", "setting": "WDR5, P61964", "value": 5.97}]}
